Experimental data taken from patent publication US20040116675A1 (published 2004).
These are yes or no findings as the source states them, for the method shown. Some binding calls cover weakened binding; strength is not graded here.

Amino acid sequences for entries named in this document (tags omitted). Residues count along the entry.
UniProt P31041, residues 20-218: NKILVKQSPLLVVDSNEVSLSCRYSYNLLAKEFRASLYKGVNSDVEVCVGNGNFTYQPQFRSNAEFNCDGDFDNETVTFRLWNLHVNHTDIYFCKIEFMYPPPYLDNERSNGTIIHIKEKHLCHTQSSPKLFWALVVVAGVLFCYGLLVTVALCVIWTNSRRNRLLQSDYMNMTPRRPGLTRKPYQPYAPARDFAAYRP

Experiments:
[1] = molecular target: murine CD28 on cells (CD28-positive murine T cell line EL4; BALB/c mouse splenic T cells) (mouse) (UniProt P31041); assay: flow cytometry competition on EL4 cells (legend of FIG. 19)
[2] = molecular target: murine CD28 on cells (CD28-positive murine T cell line EL4; BALB/c mouse splenic T cells) (mouse) (UniProt P31041); assay: flow cytometry competition on EL4 cells, 25-fold excess against R-PE-PV1
[3] = molecular target: murine CD28 on cells (CD28-positive murine T cell line EL4; BALB/c mouse splenic T cells) (mouse) (UniProt P31041); assay: flow cytometry on EL4 cells, 1 µg/ml; the filing says PV1 binds CD28 and also binds nonspecifically to other sites
[4] = molecular target: murine CD28 on cells (CD28-positive murine T cell line EL4; BALB/c mouse splenic T cells) (mouse) (UniProt P31041); assay: flow cytometry reverse competition on EL4 cells, 25-fold excess PV1 against PV1-IgG3

- binding [1]: binds
- binding [2]: binds
- binding [3]: binds
- binding [4]: binds
B1: PV1 (Armenian hamster anti-murine CD28 antibody, hybridoma ATCC HB-12352) (antibody, V domains shown)
VH: QVQLKQSGAELVKPGASVKISCKTSGYTFTDGYMNWVEQKPGQGLEWIGRIDPDSGNTRYNQKFQGKATLTRDKSSSTVYMDLRSLTSEDSAVYYCARDGTFYGTYGYWYFDFWGQGTQVTVSS
VL: DIVMTQSPYSLAVSAGEKVTMSCRSSQSLYYSGIKKNLLAWYQQKPGQSPKLLIYFTSTRLPGVPDRFTGSGSGTDYTLTITSVQAEDMGHYFCQQGISTPLTFGDGTKLEIR
